Laboratory results from paper doi:10.1101/2025.06.20.660715.
Where two headings read alike, the source gives them in different places. These are yes or no findings as the source states them, for the method shown. Binding seen in cells or lysates may run through a third protein. Here binding means that the protein was enriched with, or labelled near, the bait; the list need not be complete.

Amino acid sequences for entries named in this document (tags omitted).
UniProt O94921: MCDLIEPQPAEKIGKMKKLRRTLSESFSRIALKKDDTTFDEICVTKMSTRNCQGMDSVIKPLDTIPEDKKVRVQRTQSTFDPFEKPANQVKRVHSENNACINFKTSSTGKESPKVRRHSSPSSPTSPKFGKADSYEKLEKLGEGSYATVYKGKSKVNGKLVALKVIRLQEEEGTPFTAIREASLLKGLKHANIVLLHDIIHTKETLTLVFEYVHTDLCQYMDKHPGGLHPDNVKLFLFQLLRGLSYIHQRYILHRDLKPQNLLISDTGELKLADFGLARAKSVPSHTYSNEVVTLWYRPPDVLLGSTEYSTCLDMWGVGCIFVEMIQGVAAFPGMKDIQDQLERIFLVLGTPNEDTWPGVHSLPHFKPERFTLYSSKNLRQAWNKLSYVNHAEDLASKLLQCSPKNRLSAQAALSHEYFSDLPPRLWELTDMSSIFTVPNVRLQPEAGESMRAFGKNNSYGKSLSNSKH
UniProt Q6P5Z2: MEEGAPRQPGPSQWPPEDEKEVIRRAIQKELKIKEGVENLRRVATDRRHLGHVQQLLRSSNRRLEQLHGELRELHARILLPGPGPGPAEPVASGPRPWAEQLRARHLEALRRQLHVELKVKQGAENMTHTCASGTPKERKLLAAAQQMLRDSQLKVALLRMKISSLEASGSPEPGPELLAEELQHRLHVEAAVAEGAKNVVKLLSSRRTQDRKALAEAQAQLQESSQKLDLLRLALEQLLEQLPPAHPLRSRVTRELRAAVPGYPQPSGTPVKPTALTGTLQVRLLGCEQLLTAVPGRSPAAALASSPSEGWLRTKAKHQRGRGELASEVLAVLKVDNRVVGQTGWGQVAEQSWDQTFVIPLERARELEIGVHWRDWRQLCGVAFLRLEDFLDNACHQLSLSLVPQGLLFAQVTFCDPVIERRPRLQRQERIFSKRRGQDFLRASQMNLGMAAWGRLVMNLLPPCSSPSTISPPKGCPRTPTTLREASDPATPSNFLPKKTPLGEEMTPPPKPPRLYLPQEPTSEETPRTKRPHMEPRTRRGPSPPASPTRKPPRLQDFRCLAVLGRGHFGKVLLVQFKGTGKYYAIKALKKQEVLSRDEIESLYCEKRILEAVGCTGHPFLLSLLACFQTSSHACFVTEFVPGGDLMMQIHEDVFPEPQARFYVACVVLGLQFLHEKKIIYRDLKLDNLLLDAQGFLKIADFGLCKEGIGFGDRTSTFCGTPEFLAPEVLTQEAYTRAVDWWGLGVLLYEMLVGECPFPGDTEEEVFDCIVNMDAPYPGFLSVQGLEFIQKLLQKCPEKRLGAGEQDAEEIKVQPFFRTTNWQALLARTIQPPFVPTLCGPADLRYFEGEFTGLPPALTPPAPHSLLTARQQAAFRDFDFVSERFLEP
UniProt Q9UGJ0: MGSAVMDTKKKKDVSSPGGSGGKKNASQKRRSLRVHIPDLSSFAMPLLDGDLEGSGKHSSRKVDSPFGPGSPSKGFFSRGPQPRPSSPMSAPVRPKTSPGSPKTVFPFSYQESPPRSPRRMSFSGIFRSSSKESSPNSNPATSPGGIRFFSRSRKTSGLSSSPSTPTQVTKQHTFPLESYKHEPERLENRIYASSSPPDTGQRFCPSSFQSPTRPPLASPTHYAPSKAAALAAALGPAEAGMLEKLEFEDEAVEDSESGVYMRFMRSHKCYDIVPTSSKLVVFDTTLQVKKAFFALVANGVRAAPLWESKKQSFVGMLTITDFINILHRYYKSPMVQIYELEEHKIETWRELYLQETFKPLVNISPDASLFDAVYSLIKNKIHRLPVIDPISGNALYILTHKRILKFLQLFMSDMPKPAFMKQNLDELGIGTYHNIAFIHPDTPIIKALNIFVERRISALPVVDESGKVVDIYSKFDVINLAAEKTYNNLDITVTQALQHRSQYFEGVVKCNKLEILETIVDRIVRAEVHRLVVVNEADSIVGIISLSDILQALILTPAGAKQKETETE
UniProt Q8WZ64: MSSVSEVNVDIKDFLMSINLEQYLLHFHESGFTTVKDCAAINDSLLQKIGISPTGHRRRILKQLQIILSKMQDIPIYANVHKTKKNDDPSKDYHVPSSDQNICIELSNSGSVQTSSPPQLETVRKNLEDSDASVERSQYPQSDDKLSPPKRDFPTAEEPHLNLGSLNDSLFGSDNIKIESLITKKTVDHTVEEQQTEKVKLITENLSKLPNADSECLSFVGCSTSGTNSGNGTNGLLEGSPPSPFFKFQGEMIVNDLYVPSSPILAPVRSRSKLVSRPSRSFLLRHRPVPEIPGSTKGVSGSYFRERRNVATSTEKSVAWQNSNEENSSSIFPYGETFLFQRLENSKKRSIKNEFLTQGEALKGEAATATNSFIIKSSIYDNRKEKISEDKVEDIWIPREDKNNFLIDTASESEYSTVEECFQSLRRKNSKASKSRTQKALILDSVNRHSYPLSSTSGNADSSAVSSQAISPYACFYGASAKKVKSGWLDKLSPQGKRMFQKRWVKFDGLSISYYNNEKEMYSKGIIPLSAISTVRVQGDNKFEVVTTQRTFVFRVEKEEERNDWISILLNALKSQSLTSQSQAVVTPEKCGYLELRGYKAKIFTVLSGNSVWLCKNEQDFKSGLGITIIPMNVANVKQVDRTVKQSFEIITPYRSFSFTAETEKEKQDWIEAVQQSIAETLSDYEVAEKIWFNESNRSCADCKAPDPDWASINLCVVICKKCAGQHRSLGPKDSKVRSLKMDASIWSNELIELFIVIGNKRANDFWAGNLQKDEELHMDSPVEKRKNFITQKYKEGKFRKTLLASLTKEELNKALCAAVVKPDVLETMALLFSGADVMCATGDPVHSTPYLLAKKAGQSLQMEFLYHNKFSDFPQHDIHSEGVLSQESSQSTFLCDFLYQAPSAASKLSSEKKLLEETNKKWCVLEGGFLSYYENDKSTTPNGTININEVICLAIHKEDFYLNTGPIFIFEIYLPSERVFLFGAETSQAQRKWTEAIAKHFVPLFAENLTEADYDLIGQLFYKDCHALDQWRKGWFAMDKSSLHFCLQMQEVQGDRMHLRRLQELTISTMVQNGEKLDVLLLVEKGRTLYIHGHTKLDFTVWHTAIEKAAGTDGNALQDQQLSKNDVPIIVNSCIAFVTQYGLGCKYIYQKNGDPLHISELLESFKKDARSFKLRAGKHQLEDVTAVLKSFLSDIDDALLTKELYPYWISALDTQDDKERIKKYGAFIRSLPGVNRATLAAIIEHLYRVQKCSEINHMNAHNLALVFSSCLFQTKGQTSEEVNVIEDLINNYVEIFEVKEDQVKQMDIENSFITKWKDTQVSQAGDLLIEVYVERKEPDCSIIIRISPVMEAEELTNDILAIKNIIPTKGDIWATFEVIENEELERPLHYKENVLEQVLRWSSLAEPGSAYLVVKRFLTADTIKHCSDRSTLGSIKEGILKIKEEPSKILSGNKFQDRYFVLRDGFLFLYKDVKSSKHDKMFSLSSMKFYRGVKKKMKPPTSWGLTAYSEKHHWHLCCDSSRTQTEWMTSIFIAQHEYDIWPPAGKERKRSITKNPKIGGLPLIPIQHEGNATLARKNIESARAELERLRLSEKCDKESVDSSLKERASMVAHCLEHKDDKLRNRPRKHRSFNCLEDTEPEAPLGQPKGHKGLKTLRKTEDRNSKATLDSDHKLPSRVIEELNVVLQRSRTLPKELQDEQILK

Assays:
Test in all cases: proximity labelling
[1] = biological target: MiniTurbo-tagged KRAS^WT (UniProt P01116)
[2] = biological target: BirA-tagged KRAS^WT (UniProt P01116)
[3] = biological target: BirA-tagged KRAS^WT (UniProt P01116); remark: listed apart in the source

| Substance | binding [1] | binding [2] | binding [3] |
| --- | --- | --- | --- |
| CDK14 (from UniProt O94921 1-469) (enzyme) | binds |  |  |
| SHP2 (PTPN11) (from UniProt Q06124 1-593) (enzyme) |  | binds | binds |
| GAB2 (from UniProt Q9UQC2 1-676) |  | binds | binds |
| AHNAK2 (from UniProt Q8IVF2 1-5795) | binds |  |  |
| PKN3 (from UniProt Q6P5Z2 1-889) (enzyme) | binds |  |  |
| PRKAG2 (from UniProt Q9UGJ0 1-569) | binds |  |  |
| ARAP2 (from UniProt Q8WZ64 1-1704) | binds |  |  |
| SHTN1 (from UniProt A0MZ66 1-631) | binds |  |  |
